At least one structure is not confirmed: it was looked up by name or label, or the drawing left a doubt.
System: HEK293T parental cells
Experiment: Membrane potential assay, response of control cells to channel activators
Format: cell-based
Conditions: 25 μM veratridine and 5-25 μg/ml scorpion venom, second addition step, FIG. 4

With `COc1ccc(C(=O)O[C@H]2CC[C@@]3(C)[C@@H]4CC[C@H]5[C@]6(O)C[C@H](O)[C@@]7(O)[C@@H](CN8C[C@@H](C)CC[C@H]8[C@@]7(C)O)[C@]6(O)C[C@@]53O[C@]24O)cc1OC` [veratridine] the “response to NaV activator in functional membrane potential cell-based assay” value was “did not”.
